# In PMC6002714, “Bovine Herpesvirus 1 UL49.5 Interacts with gM and VP22 To Ensure Virus Cell-to-Cell Spread and Virion Incorporation: Novel Role for VP22 in gM-Independent UL49.5 Virion Incorporation” (Journal of Virology, 2018):
# Protein sequences, listed by entry. Tags and fused reporters are not part of them. Residues count along the entry.
# UniProt D5KR85: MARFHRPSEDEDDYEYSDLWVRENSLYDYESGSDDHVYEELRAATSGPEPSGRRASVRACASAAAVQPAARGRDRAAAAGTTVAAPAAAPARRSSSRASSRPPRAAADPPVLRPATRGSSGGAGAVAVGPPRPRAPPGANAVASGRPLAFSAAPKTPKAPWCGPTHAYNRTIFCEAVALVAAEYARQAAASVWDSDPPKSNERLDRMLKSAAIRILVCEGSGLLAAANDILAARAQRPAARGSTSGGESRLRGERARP
# UniProt Q77CE4, residues 22-79: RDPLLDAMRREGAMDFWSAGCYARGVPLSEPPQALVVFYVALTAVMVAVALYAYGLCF
# UniProt A0A0U2T5D3: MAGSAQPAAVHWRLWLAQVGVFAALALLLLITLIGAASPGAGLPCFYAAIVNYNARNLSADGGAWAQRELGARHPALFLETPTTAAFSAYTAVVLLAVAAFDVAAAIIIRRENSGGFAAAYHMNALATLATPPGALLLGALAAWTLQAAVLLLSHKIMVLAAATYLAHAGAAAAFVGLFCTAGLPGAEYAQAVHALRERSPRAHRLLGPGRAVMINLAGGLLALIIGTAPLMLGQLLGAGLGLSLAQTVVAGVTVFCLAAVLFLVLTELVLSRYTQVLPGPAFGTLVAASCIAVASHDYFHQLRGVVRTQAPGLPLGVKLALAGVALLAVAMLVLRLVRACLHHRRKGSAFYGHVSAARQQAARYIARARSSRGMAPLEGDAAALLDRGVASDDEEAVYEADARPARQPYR
# Results are given in words; binding and its absence hold for the method and conditions named. Binding seen in cells or lysates may run through a third protein. Some results given as binding are weak or reduced against the parent protein; the word gives no strength.
# Columns and labels:
# [1] = target: BHV-1 envelope glycoprotein M (gM) (Bovine herpesvirus type 1 (BHV-1), Cooper (Colorado-1) strain); assay: co-IP; 35S-labeled lysates of virus-infected MDBK cells immunoprecipitated with anti-gM polyclonal antibody (protein A-Sepharose), reducing SDS-PAGE, autoradiography
# [2] = target: BHV-1 tegument protein VP22 (Bovine herpesvirus type 1 (BHV-1), Cooper (Colorado-1) strain) (UniProt D5KR85); assay: co-IP; lysates of wt, C42S, CT-null and C42S/CT-null virus-infected cells immunoprecipitated with anti-VP22 antibody; Western blot with anti-UL49.5, anti-VP22 and anti-gE
# [3] = target: BHV-1 UL49.5 CT-null (Bovine herpesvirus type 1 (BHV-1), Cooper (Colorado-1) strain) (UniProt Q77CE4); assay: co-IP; 35S-labeled lysates of virus-infected MDBK cells immunoprecipitated with anti-UL49.5 polyclonal antibody (protein A-Sepharose), reducing SDS-PAGE, autoradiography
# [4] = target: BHV-1 envelope glycoprotein M (gM) (Bovine herpesvirus type 1 (BHV-1), Cooper (Colorado-1) strain); assay: co-IP; lysates of wt, C42S, CT-null and C42S/CT-null virus-infected cells immunoprecipitated with anti-gM antibody; Western blot with anti-gM and anti-VP22
substance,measurement,setting,value
BHV-1 UL49.5 CT-null (from UniProt Q77CE4 22-79) (domain or fragment),binding,[1],binds
same,binding,[2],binds
BHV-1 envelope glycoprotein M (gM) (from UniProt A0A0U2T5D3 1-411),binding,[3],binds
BHV-1 tegument protein VP22 (from UniProt D5KR85 1-258),binding,[4],binds
